Test results from US8551516B2, “Administration of non-oral androgenic steroids to women” (Actavis, Inc., priority 1999, dated 2013).
For at least one compound, name, drawing or mass did not settle the structure.

Assays:
SHBG = assay: Serum SHBG level prior to patch application in the pharmacokinetic study; assay type: in vivo, human; details: transdermal estrogen group
Source text: The structure and proposed functions of SHBG have been described and characterized. See, for example, Rosner et al., Sex Hormone-Binding Globulin Mediates Steroid Hormone Signal Transduction at the Plasma Membrane, J. Steroid Biochem. Mol. Biol. Vol. 69:481-5 (1999); Petra, P. H. The plasma Sex Steroid Binding Protein (SBP or SHBG). A Critical Review of Recent Developments on the Structure, Molecular Biology, and Function, J. Steroid Biochem. Mol. Biol., Vol. 40:735-53 (1991). A variety of methods have been used to quantify the serum concentrations of SHBG, including ammonium sulfate precipitation, gel filtration, equilibrium dialysis, dextran-coated charcoal, and radioimmunoassay. See, for example, Khan et al., Radioimmunoassay for Human Testosterone-Estradiol-Binding Globulin, J. Clinical Endocrinology and Metabolism, Vol. 54:705-710 (1982). […] Serum SHBG levels are known to be elevated in women treated with oral estrogens, estrogen-containing oral contraceptives, clomiphene, tamoxifen, raloxifene, phenytoin, and sodium valproate, as well as in women who are pregnant, hyperthyroid, have chronic liver disease and HIV-infection. See for example, Bond et al., Sex Hormone Binding Globulin in Clinical Perspective, Acta. Obstet. Gynecol. […]

[1] = target: T1, sex hormone binding globulin (SHBG) (Homo sapiens, UniProt P04278); details: adapted from Dunn et al. 1981; human plasma; cited from earlier work
T1 sequence (P04278 30-402): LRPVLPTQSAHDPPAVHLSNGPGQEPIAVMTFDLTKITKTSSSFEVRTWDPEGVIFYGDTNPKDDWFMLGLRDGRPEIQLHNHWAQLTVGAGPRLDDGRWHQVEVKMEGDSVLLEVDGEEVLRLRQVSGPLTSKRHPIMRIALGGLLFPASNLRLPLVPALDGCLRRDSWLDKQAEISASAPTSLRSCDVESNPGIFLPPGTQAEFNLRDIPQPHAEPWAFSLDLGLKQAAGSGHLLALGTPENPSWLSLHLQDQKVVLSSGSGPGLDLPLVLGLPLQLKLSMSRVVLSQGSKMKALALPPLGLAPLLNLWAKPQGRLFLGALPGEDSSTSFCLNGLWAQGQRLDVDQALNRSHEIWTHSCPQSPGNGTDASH

SMILES: C[C@]12CC[C@@H]3c4ccc(O)cc4CC[C@H]3[C@@H]1CC[C@@H]2O [estradiol]
- SHBG levels versus women who did not receive ERT (SHBG): comparable

SMILES: C[C@]12CC[C@@H]3c4ccc(O)cc4CC[C@H]3[C@@H]1CCC2=O [estrone]
- K (binding affinity constant for SHBG) [1]: 150 10^6 Liter/mole
